{"source": "PubChem BioAssay AID504744, Drosophila RNAi Screening Center – 2011", "aim": "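Uncover factors, including feedback loops, that control dAkt activation in fly cells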 (primary screen)", "cell system": "Drosophila Kc167 cells", "knock-down reagent": "long dsRNA against Drosophila genes, 250 ng dsRNA per well of a 384-well plate", "time to read-out": "3 days of knock-down, then overnight serum-free starvation before stimulation", "challenge": "bovine insulin at 387 nM for 10 minutes after 12 h without serum", "measurement": "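Per-well phospho-dAkt level from an in-cell fluorescent antibody stain, divided by a DNA-dye signal; log2 residuals turned into z-scores that take cell number into account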", "hit rule": "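Hit in the insulin screen when the two-replicate mean z-score is more extreme than plus or minus 2.5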", "note": "The deposit covers about 23,000 reagents; shown is an unselected part of those with a known target gene and a result. Over the whole deposit, 98 (0.43%) were called active. 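Only hit calls are given; the phospho-dAkt signals, z-scores and hit direction were not deposited.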 A plus sign joins genes that one reagent is predicted to hit."}
{"target gene": "CG12898", "dsRNA": "DRSC06213", "Call": "inactive"}
{"target gene": "Cypl", "dsRNA": "DRSC08362", "Call": "inactive"}
{"target gene": "nAChRalpha3", "dsRNA": "DRSC18800", "Call": "inactive"}
{"target gene": "Mst87F", "dsRNA": "DRSC16747", "Call": "inactive"}
{"target gene": "Cpsf5", "dsRNA": "DRSC10374", "Call": "inactive"}
{"target gene": "CheA75a", "dsRNA": "DRSC10807", "Call": "inactive"}
{"target gene": "GstS1", "dsRNA": "DRSC07436", "Call": "inactive"}
{"target gene": "NimB1", "dsRNA": "DRSC01880", "Call": "inactive"}
{"target gene": "CG43795", "dsRNA": "DRSC04192", "Call": "inactive"}
{"target gene": "CG43795", "dsRNA": "DRSC04193", "Call": "inactive"}
{"target gene": "CG43795", "dsRNA": "DRSC04194", "Call": "inactive"}
{"target gene": "CG43795", "dsRNA": "DRSC04309", "Call": "inactive"}
{"target gene": "CG43795", "dsRNA": "DRSC04310", "Call": "inactive"}
{"target gene": "CG43795", "dsRNA": "DRSC22826", "Call": "inactive"}
{"target gene": "CG14606", "dsRNA": "DRSC12550", "Call": "inactive"}
{"target gene": "RpL22", "dsRNA": "DRSC18707", "Call": "inactive"}
{"target gene": "RpL22", "dsRNA": "DRSC22819", "Call": "inactive"}
{"target gene": "Spt6", "dsRNA": "DRSC18836", "Call": "inactive"}
{"target gene": "CG10710", "dsRNA": "DRSC09784", "Call": "inactive"}
{"target gene": "scpr-B", "dsRNA": "DRSC15200", "Call": "inactive"}
{"target gene": "Sms", "dsRNA": "DRSC10408", "Call": "inactive"}
{"target gene": "PGRP-LD + Cralbp + Pmi", "dsRNA": "DRSC09743", "Call": "inactive"}
{"target gene": "ranshi", "dsRNA": "DRSC16564", "Call": "inactive"}
{"target gene": "Gr32a", "dsRNA": "DRSC02400", "Call": "inactive"}
{"target gene": "MED22", "dsRNA": "DRSC18175", "Call": "inactive"}
{"target gene": "CG1105", "dsRNA": "DRSC12528", "Call": "inactive"}
{"target gene": "CG30340", "dsRNA": "DRSC05167", "Call": "inactive"}
{"target gene": "GstE3", "dsRNA": "DRSC06673", "Call": "inactive"}
{"target gene": "l(3)05822", "dsRNA": "DRSC16202", "Call": "inactive"}
{"target gene": "cathD", "dsRNA": "DRSC07588", "Call": "inactive"}
{"target gene": "CecA2", "dsRNA": "DRSC16604", "Call": "inactive"}
{"target gene": "CG6724", "dsRNA": "DRSC02983", "Call": "inactive"}
{"target gene": "Rcd-1", "dsRNA": "DRSC19569", "Call": "inactive"}
{"target gene": "CG31975 + ovm", "dsRNA": "DRSC00323", "Call": "inactive"}
{"target gene": "Rab3-GAP", "dsRNA": "DRSC02001", "Call": "inactive"}
{"target gene": "Rat1", "dsRNA": "DRSC02044", "Call": "inactive"}
{"target gene": "Rpn2", "dsRNA": "DRSC16839", "Call": "inactive"}
{"target gene": "CG7512", "dsRNA": "DRSC10863", "Call": "inactive"}
{"target gene": "Csl4", "dsRNA": "DRSC02944", "Call": "inactive"}
{"target gene": "Csl4", "dsRNA": "DRSC22664", "Call": "inactive"}
{"target gene": "SPR", "dsRNA": "DRSC17390", "Call": "inactive"}
{"target gene": "SPR", "dsRNA": "DRSC17886", "Call": "inactive"}
{"target gene": "SPR", "dsRNA": "DRSC18114", "Call": "inactive"}
{"target gene": "SPR", "dsRNA": "DRSC21557", "Call": "inactive"}
{"target gene": "Or33a", "dsRNA": "DRSC03386", "Call": "inactive"}
{"target gene": "Ogg1", "dsRNA": "DRSC17738", "Call": "inactive"}
{"target gene": "CG8243", "dsRNA": "DRSC07122", "Call": "inactive"}
{"target gene": "CG8243", "dsRNA": "DRSC22608", "Call": "inactive"}
{"target gene": "Proc-R", "dsRNA": "DRSC18410", "Call": "inactive"}
{"target gene": "CG2528", "dsRNA": "DRSC03724", "Call": "inactive"}
{"target gene": "CG6204", "dsRNA": "DRSC15991", "Call": "inactive"}
{"target gene": "CG31326", "dsRNA": "DRSC16532", "Call": "inactive"}
{"target gene": "ng4", "dsRNA": "DRSC18805", "Call": "inactive"}
{"target gene": "Sec24CD", "dsRNA": "DRSC00300", "Call": "inactive"}
{"target gene": "Cp7Fb", "dsRNA": "DRSC18034", "Call": "inactive"}
{"target gene": "SerT", "dsRNA": "DRSC04655", "Call": "inactive"}
{"target gene": "ntc", "dsRNA": "DRSC08166", "Call": "inactive"}
{"target gene": "not", "dsRNA": "DRSC11378", "Call": "inactive"}
{"target gene": "Rtf1", "dsRNA": "DRSC04085", "Call": "inactive"}
{"target gene": "Iswi", "dsRNA": "DRSC07446", "Call": "inactive"}
{"target gene": "CG33465", "dsRNA": "DRSC05587", "Call": "inactive"}
{"target gene": "RpL7A", "dsRNA": "DRSC18709", "Call": "inactive"}
{"target gene": "mei-41", "dsRNA": "DRSC20350", "Call": "inactive"}
{"target gene": "CG32537", "dsRNA": "DRSC20073", "Call": "inactive"}
{"target gene": "TORIP", "dsRNA": "DRSC10104", "Call": "inactive"}
{"target gene": "CG5335", "dsRNA": "DRSC06931", "Call": "inactive"}
{"target gene": "CG10031", "dsRNA": "DRSC00286", "Call": "inactive"}
{"target gene": "Surf6", "dsRNA": "DRSC15588", "Call": "inactive"}
{"target gene": "krz", "dsRNA": "DRSC16979", "Call": "inactive"}
{"target gene": "tey", "dsRNA": "DRSC11042", "Call": "inactive"}
{"target gene": "tey", "dsRNA": "DRSC21709", "Call": "inactive"}
{"target gene": "Nup154", "dsRNA": "DRSC03384", "Call": "inactive"}
{"target gene": "Srp72", "dsRNA": "DRSC15800", "Call": "active"}
